Source: publication PMC5694546
No constants are given. Whether binding was seen depends on the method and setting. In cells and extracts the contact can be indirect.

Protein sequences, listed by entry. Tags and fused reporters are not part of them. Residues count along the entry.
UniProt O87120, residues 16-222: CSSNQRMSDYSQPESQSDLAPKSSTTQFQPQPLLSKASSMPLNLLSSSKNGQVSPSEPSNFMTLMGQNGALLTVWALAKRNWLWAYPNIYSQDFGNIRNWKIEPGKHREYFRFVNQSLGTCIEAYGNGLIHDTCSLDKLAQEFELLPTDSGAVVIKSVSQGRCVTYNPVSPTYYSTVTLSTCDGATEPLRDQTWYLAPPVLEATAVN

Target: T1, cellugyrin (synaptogyrin 2) (human (endogenous in Jurkat, HPBMC and HeLa)) (UniProt O43760)
T1 sequence: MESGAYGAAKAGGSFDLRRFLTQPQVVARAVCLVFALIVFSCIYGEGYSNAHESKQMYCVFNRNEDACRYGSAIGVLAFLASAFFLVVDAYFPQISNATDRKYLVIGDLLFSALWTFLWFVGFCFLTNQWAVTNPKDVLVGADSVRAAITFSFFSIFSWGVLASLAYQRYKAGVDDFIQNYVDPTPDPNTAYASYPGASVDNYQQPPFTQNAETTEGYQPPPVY
Assay: co-IP

“Aggregatibacter actinomycetemcomitans cytolethal distending toxin subunit A (CdtA) (from UniProt O87120 16-222)” was tested, and the binding was “no binding”.
